For this test, the target named is T1, EDS1 full length, Gal4 BD fusion (A. thaliana) (UniProt Q9SU72).
T1 sequence: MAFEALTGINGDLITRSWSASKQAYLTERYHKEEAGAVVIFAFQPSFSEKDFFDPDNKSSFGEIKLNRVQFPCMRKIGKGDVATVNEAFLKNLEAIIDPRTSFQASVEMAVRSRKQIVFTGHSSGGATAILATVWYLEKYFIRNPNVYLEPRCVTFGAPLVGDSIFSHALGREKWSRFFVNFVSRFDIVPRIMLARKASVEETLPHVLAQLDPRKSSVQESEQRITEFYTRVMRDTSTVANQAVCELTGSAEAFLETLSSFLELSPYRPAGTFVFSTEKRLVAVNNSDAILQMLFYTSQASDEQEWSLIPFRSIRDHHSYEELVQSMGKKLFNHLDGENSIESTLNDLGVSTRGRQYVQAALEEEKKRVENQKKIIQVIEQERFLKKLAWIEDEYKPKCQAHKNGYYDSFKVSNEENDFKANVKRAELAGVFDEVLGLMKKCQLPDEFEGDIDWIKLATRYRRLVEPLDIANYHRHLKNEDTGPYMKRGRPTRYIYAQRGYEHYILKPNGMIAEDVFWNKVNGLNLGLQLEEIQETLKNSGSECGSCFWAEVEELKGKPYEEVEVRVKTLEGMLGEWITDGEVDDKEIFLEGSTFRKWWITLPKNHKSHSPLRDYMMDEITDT
The test is described as follows: two-hybrid; S. cerevisiae AH109, pDEST-GBKT7 (BD) and pDEST-GADT7 (AD) fusions; growth on SD-LWH with 5 mM 3-amino-1,2,4-triazole and on SD-LWHA, 28°C, 5 days.

These are yes or no findings as the source states them, for the method shown. Some binding calls cover weakened binding; strength is not graded here. Sequences can lack the tags named with a protein.

B1: PAD4 full length, Gal4 AD fusion (protein, UniProt Q9S745 1-541)
chain: MDDCRFETSELQASVMISTPLFTDSWSSCNTANCNGSIKIHDIAGITYVAIPAVSMIQLGNLVGLPVTGDVLFPGLSSDEPLPMVDAAILKLFLQLKIKEGLELELLGKKLVVITGHSTGGALAAFTALWLLSQSSPPSFRVFCITFGSPLLGNQSLSTSISRSRLAHNFCHVVSIHDLVPRSSNEQFWPFGTYLFCSDKGGVCLDNAGSVRLMFNILNTTATQNTEEHQRYGHYVFTLSHMFLKSRSFLGGSIPDNSYQAGVALAVEALGFSNDDTSGVLVKECIETATRIVRAPILRSAELANELASVLPARLEIQWYKDRCDASEEQLGYYDFFKRYSLKRDFKVNMSRIRLAKFWDTVIKMVETNELPFDFHLGKKWIYASQFYQLLAEPLDIANFYKNRDIKTGGHYLEGNRPKRYEVIDKWQKGVKVPEECVRSRYASTTQDTCFWAKLEQAKEWLDEARKESSDPQRRSLLREKIVPFESYANTLVTKKEVSLDVKAKNSSYSVWEANLKEFKCKMGYENEIEMVVDESDAMET
On to B1, for which the binding entry is on record as “binds”.

B2: SAG101 full length, Gal4 AD fusion (protein, UniProt Q4F883 1-537)
chain: MESSSSLKGSALGKLVVTSGLLHSSWSKILEIHNPPYSNHDPGLQVSKKKKDSGLEFQIHREEKFTLVVFSAPPICRSSSSDSTLLHVKDKENPFPFLCSENNPSFSLHTPAFNLFTSASTSLTYLKSELLQTLKSEKPVIITGAALGGSVASLYTLWLLETIEPTLKRPLCITFGSPLIGDASLQQILENSVRNSCFLHVVSAQTRIKMDFFKPFGTFLICFDSGCVCIEDHVAVTELLNGVHDSGLVDYSQVLNRLDQSMLSLADSRLIPEDVIKGIEKRAEMKNLRFDMMFKKLNDMKISMAYIEWYKKKCKEVKIGYYDRFKTQLAFPSKEFDINIKNHHKSELNRFWKSVVEEVERRPQSDASILKRRFLFSGNNYRRMIEPLDIAEYYLEGRKEYRTTGRSHHYVMLEKWFGMESILIEKERCKKRDLSDLLTFDSCFWAEVEDSLIVINQLNTTVGMRDDVREVLTRKLVEFEGYVWEIITKREVSPEIFLEESSFMKWWKEYKKIKGFNSSYLTEFMNTRKYESYGKSQ
As for B2, the binding entry is “binds”.
